Source: patent US7244836
These are yes or no findings as the source states them, for the method shown. Some results given as binding are weak or reduced against the parent protein; the word gives no strength.

By UniProt entry, the sequences of proteins in these tests, tags left out. Where a name states a change or a piece, a line headed by the entry shows the natural chain unless it says otherwise.
UniProt P04386: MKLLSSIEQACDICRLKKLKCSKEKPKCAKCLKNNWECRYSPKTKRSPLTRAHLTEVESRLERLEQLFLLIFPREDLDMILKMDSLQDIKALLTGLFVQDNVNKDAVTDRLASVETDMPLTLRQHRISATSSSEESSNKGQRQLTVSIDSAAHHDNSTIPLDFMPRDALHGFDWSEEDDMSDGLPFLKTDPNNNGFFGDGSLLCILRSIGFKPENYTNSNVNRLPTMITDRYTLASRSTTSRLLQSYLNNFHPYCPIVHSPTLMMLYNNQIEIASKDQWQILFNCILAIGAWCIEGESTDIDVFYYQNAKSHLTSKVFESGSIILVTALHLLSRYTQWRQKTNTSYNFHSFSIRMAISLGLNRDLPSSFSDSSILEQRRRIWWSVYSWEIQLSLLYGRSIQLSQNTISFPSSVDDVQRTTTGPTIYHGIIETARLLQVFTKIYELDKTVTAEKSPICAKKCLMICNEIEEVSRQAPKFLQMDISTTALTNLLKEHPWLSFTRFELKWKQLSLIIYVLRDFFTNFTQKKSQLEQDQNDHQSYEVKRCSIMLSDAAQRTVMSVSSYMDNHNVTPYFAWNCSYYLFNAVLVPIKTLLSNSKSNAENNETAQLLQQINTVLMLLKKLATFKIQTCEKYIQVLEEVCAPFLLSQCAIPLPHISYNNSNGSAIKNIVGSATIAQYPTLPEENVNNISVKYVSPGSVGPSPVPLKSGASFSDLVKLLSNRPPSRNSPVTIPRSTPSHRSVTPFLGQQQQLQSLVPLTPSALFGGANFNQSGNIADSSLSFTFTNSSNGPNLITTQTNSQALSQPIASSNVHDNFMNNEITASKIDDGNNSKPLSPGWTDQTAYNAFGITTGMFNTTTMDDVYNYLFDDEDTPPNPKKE
UniProt P20333: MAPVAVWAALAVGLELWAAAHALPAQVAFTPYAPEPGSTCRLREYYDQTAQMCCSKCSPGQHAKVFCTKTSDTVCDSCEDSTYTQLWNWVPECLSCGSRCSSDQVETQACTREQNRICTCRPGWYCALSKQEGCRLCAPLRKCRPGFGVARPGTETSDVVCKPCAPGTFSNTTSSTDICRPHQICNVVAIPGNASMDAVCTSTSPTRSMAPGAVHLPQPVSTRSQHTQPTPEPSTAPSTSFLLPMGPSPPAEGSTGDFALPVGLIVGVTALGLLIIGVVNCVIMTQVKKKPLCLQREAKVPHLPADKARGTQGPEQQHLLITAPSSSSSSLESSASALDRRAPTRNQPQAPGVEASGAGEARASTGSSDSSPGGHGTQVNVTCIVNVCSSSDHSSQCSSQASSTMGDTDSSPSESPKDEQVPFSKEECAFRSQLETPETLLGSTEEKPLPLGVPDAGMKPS
UniProt P25119: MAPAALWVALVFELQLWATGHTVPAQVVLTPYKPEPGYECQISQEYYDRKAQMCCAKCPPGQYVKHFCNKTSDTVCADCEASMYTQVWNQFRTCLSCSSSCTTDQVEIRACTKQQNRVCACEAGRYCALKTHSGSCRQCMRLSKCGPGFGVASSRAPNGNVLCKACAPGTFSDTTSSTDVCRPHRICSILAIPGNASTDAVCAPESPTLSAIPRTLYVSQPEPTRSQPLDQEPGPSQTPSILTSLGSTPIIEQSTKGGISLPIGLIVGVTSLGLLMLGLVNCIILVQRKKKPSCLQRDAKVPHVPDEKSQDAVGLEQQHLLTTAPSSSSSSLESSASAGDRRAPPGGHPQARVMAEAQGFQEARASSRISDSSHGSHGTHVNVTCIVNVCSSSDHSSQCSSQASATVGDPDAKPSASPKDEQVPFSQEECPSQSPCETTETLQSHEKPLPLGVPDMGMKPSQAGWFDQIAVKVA

How the values were obtained:
[1] = biological target: T1, GAL4 DNA-binding domain fused to the intracellular domain of human TNF-R2 (yeast; human) (UniProt P04386+P20333); experiment: yeast three-component assay with NLS-TRAF2 expressed directly; growth on trp- leu- his- medium with 20 mM 3-aminotriazole
[2] = biological target: T2, GAL4 DNA-binding domain fused to the intracellular domain of the murine TNF-R2 (yeast; murine) (UniProt P04386+P25119); experiment: as above
[3] = biological target: T1, GAL4 DNA-binding domain fused to the intracellular domain of human TNF-R2 (yeast; human); experiment: yeast three-component assay; the filing reads it as a heterodimeric complex of TRAF1 and TRAF2 interacting with the intracellular domain of TNF-R2
[4] = biological target: T2, GAL4 DNA-binding domain fused to the intracellular domain of the murine TNF-R2 (yeast; murine); experiment: as above

Measured: binding

B1: GAL4(TA)-TRAF1 co-expressed with NLS-TRAF2 (heterodimeric complex of TRAF1 and TRAF2) (protein, not shown: large carriers)
chain 1: ASSSAPDENEFQFGCPPAPCQDPSEPRVLCCTACLSENLRDDEDRICPKCRADNLHPVSPGSPLTQEKVHSDVAEAEIMCPFAGVGCSFKGSPQSMQEHEATSQSSHLYLLLAVLKEWKSSPGSNLGSAPMALERNLSELQLQAAVEATGDLEVDCYRAPCCESQEELALQHLVKEKLLAQLEEKLRVFANIVAVLNKEVEASHLALAASIHQSQLDREHLLSLEQRVVELQQTLAQKDQVLGKLEHSLRLMEEASFDGTFLWKITNVTKRCHESVCGRTVSLFSPAFYTAKYGYKLCLRLYLNGDGSGKKTHLSLFIVIMRGEYDALLPWPFRNKVTFMLLDQNNREHAIDAFRPDLSSASFQRPQSETNVASGCPLFFPLSKLQSPKHAYVKDDTMFLKCIVDTSA
chain 2: MPKKKRKVAAASVTSPGSLELLQPGFSKTLLGTRLEAKYLCSACKNILRRPFQAQCGHRYCSFCLTSILSSGPQNCAACVYEGLYEEGISILESSSAFPDNAARREVESLPAVCPNDGCTWKGTLKEYESCHEGLCPFLLTECPACKGLVRLSEKEHHTEQECPKRSLSCQHCRAPCSHVDLEVHYEVCPKFPLTCDGCGKKKIPRETFQDHVRACSKCRVLCRFHTVGCSEMVETENLQDHELQRLREHLALLLSSFLEAQASPGTLNQVGPELLQRCQILEQKIATFENIVCVLNREVERVAVTAEACSRQHRLDQDKIEALSNKVQQLERSIGLKDLAMADLEQKVSELEVSTYDGVFIWKISDFTRKRQEAVAGRTPAIFSPAFYTSRYGYKMCLRVYLNGDGTGRGTHLSLFFVVMKGPNDALLQWPFNQKVTLMLLDHNNREHVIDAFRPDVTSSSFQRPVSDMNIASGCPLFCPVSKMEAKNSYVRDDAIFIKAIVDLTGL
binds: [1] | [2] | [3] | [4]
